Measurements as given in PMC5741622, “Structure of a Wbl protein and implications for NO sensing by M. tuberculosis” (Nature Communications, 2017).
These are yes or no findings as the source states them, for the method shown. Where a sequence is shown, tags or fusion partners need not be part of it.

Biological target: M. tuberculosis WhiB1 overproduced in Mycobacterium smegmatis with a His-tag and a TEV protease clea (Mycobacterium tuberculosis) (UniProt P9WF43)
Assay: native MS; both purified

B1: M. tuberculosis WhiB1 overproduced in Mycobacterium smegmatis with a His-tag and a TEV protease clea (protein, UniProt P9WF43 1-84)
chain: MDWRHKAVCRDEDPELFFPVGNSGPALAQIADAKLVCNRCPVTTECLSWALNTGQDSGVWGGMSEDERRALKRRNARTKARTGV
modifications: [4Fe-4S] cluster coordinated by cysteine residues 9, 37, 40 and 46
binding: no binding (tested: 20 μM)
